Our source for the binding values is article PMC4342582.

Amino acid sequences for entries named in this document (tags omitted).
UniProt Q9NZI8: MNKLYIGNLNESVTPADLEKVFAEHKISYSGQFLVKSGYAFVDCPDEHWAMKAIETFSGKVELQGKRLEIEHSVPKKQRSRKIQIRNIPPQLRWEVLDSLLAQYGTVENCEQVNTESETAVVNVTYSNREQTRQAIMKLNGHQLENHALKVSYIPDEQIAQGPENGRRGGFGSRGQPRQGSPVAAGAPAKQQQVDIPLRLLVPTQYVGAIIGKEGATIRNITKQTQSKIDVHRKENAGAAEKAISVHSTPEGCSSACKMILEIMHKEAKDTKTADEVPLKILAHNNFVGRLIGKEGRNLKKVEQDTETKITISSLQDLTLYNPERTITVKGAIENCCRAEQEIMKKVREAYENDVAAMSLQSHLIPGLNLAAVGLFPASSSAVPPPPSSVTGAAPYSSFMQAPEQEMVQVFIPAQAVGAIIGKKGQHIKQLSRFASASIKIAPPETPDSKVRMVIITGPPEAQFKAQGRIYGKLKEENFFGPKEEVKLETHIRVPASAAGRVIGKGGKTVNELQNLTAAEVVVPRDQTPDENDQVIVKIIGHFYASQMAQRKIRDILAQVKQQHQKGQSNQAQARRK
UniProt P52732: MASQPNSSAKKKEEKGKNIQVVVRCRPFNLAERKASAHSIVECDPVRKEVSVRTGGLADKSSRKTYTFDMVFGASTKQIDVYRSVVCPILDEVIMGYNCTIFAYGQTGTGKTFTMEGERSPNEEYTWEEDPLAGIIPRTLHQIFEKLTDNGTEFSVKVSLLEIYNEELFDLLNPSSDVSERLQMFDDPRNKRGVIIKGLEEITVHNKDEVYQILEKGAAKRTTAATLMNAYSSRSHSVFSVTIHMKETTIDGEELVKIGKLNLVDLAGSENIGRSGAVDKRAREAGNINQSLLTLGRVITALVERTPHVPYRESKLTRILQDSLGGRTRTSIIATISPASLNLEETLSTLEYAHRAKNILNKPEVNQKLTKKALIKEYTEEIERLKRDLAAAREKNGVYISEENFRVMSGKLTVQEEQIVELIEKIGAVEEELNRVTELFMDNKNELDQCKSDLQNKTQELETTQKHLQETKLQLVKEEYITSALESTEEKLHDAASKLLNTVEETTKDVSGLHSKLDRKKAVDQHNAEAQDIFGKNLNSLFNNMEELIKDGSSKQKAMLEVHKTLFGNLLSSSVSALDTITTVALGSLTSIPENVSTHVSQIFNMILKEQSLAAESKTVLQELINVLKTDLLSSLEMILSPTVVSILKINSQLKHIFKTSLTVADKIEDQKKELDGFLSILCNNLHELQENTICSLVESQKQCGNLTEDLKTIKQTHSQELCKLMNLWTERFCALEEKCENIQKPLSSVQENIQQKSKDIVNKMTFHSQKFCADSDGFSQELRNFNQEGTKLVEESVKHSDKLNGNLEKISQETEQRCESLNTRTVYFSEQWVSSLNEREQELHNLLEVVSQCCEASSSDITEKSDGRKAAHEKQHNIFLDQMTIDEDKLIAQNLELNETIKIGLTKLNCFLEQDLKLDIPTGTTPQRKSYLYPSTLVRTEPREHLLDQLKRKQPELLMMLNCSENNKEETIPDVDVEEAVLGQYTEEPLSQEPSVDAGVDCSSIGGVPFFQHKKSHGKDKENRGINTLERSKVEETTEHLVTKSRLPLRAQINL

The target of this test is MBP-ZBP1 full length (UniProt Q9NZI8). The test can be described thus: pull-down; MBP-ZBP1 fusion proteins (0.1-0.5 µg) on amylose beads, incubated with cell extract on ice for 4 h; eluted with 20 mM maltose; western blot for KIF11; only the target purified. For orientation: Immunoblotting shows a protein as a band on a membrane.

Results are given in words; binding and its absence hold for the method and conditions named. In cells and extracts the contact can be indirect. Some entries that bind do so weakly or less than the wild type.

On to “KIF11, endogenous (from UniProt P52732 1-1056)”, for which the binding entry was “binds”.
